In paper PMC4493104 one finds binding data, which are given here for two molecules.

By UniProt entry, the sequences of proteins in these tests, tags left out. Where a name states a change or a piece, a line headed by the entry shows the natural chain unless it says otherwise.
UniProt O94623: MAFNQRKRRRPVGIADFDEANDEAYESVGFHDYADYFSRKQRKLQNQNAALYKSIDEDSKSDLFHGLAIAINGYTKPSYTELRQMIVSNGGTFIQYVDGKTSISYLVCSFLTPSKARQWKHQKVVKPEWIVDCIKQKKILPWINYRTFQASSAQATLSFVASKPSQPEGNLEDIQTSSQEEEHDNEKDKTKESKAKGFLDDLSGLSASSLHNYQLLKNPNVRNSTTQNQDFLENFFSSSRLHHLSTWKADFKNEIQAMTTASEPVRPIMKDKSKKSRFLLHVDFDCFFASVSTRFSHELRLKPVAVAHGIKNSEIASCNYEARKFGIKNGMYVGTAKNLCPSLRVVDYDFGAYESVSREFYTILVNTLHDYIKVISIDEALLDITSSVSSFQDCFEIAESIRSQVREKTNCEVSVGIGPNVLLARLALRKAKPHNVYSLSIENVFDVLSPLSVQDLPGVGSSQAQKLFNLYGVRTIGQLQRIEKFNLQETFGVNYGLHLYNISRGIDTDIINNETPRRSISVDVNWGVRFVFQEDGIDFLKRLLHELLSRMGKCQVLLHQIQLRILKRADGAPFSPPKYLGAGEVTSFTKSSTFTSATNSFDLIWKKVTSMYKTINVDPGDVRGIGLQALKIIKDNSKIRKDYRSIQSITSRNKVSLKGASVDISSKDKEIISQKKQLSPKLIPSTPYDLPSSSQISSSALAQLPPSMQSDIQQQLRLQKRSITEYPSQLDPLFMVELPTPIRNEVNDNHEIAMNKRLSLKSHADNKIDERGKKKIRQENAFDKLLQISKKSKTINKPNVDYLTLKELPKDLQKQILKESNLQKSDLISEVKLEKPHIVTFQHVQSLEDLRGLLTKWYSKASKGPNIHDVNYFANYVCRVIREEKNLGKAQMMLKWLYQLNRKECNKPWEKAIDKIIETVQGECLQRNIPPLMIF

No constants are given. Whether binding was seen depends on the method and setting. In cells and extracts the contact can be indirect. For some assays here: Binding can be weak; no strength is given. For some assays here: Tags and fused reporters may be left off the sequences shown.

Test [1] deals with T1, Pop1 (V5-tagged, pop1^V5) (fission yeast) (UniProt P87060).
T1 sequence: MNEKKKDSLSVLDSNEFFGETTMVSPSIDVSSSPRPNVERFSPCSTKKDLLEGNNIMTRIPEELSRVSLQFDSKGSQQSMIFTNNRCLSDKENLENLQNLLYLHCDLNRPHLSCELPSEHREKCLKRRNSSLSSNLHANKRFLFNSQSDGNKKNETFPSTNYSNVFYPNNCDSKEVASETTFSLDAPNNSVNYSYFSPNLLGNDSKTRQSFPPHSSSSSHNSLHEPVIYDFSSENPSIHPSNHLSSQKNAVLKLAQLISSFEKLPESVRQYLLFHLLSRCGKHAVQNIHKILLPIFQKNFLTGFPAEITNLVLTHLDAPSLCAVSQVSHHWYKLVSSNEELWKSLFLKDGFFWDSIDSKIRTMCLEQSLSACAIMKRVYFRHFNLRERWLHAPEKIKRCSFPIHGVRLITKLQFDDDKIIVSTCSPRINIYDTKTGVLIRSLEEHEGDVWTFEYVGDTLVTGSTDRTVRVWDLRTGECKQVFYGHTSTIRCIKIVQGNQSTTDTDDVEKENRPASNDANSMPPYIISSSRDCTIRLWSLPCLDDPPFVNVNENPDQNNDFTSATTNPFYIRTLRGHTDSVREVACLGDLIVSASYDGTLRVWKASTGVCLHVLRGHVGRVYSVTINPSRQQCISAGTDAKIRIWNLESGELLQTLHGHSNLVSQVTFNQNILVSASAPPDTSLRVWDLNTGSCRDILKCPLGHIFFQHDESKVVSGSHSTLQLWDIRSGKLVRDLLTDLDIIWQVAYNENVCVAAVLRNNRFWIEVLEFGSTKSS
Put plainly: co-IP; whole cell extracts (LiNi method, EBL buffer) of fission yeast strains; immunoprecipitation of V5-tagged Pop1 or Pop2 with rabbit anti-V5 on anti-rabbit IgG magnetic beads, Rev1 forms detected by anti-flag blot; untagged strain or rabbit normal IgG as negative control; asynchronous and cdc25-synchronized cultures.

The target in test [2] is Rev1dK internal deletion mutant (Δ761–797), flag-tagged (rev1dK^flag) (fission yeast) (UniProt O94623). In words: co-IP; immunoprecipitation assay from fission yeast extracts; bait, tags and antibodies shown only in S2 Fig and S5 Fig.

For the molecule “Rev1dK internal deletion mutant (Δ761–797), flag-tagged (rev1dK^flag) (from UniProt O94623)”, in test [1], the binding result is recorded as “no binding”.

B1: Cdc1 (protein, UniProt P87324 1-462)
chain: MVEVRHSIPCEETKRLELSLSQQTYSQQYASIYFARLTALRPRITEAASKKWPDKQRLERVLDVKSDEDCWVVATAYMTTALKPNVMNDVTQLHTIVTTTEESPYVSPEDAASGDIEYALEDDYGRIDCSGSFLYDAGVVTGVVLAVLGHEDEQGRFVVVDVCFPGIFSHSIPMTTDESQAQPEYIAAVSGLGLSNDGIEGIQVHQLVDFLRGTLPHVSSFSPSSIKRLIILGNCLAPSIEIADSASASVPIGKKKVKRYGYDTSAYNPNPTFQLDNFLDQVCSSIDVTLMPGPYDYSSTILPQQPLHPALLTKSKVWLGSSLQTVTNPTWLSLGNHFVLATSGQNINDLRKYHPKKSSLQCMENTLLWNHITPTSPDTLWCYPFTDKDTFVMEEMPDLYLCGNQPKFGCKTVINEGNRIQLVSVPEFRKTGVLVLINMHTLNVEIIQFRPMSVKAETPITS
As to B1, the binding entry in test [2] is on record as “binds”.
